Values joined by “and” are separate entries in the source; they are usually repeats but may differ in a detail not shown here. Equal entries are not always repeated. Hit rate of the full screen: of about 300,000 compounds, about 3,700 (1.2%) were called active. Inconclusive results, whose numbers are uncertain, are shown with a selection of clear calls. The call rests on the fitted dose curve; tested in HEK293 cells. Potencies of inconclusive entries are doubtful fits and often do not repeat.
assay: qHTS for Inhibitors of binding or entry into cells for Lassa Virus; settings: Lassa virus pseudotype entry inhibition, cell reporter; series mostly up to 37.9 µM; further: nearly all actives have a fitted effect of over 50% in size
Potency means the concentration at half of the fitted maximal effect.

SMILES	Potency
O=C1NC(c2ccc(O)cc2)Nc2ccccc21 (configuration not stated)	inactive
COc1ccc2c(c1)c1c(c(=O)n(-c3cccc(C)c3)c(=O)n1Cc1cccc(Cl)c1)n2C	inactive
O=C(c1cc2c(=O)oc3ccccc3c2s1)N1CCN(c2ccccc2)CC1	inconclusive: 11.2 µM [activator, partial curve, poor fit]
Cc1ccc(CNC(=O)c2sc3nc4n(c(=O)c3c2C)CCCCC4)cc1	inactive
CSc1cccc(NC(=O)CSc2ccc(Cl)cc2)c1	inconclusive: 18.3 µM [activator, single point]
CC(C)(C)NC(=O)C(=O)N/N=C/c1ccc(Br)cc1	inactive
Brc1cc2c(cc1/C=N/Nc1nc(N3CCOCC3)nc(N3CCOCC3)n1)OCO2	inactive
CCOC(=O)c1cn(Cc2ccc(C)cc2)nn1	inconclusive: 8.2 µM [inhibitor, partial curve, poor fit]
Cc1ccc(S(=O)(=O)/N=C2/C=C(Sc3ncn[nH]3)C(=O)c3ccccc32)c(C)c1	active: 4.11 µM
CS(=O)(=O)N1CCN(c2ccc(C(=O)NC3C4CC5CC(C4)CC3C5)cc2[N+](=O)[O-])CC1 (configuration not stated)	inconclusive: 7.3 µM [inhibitor, partial curve, poor fit]
CCN(CC)S(=O)(=O)c1cccc(C(=O)N/N=C/c2ccc([N+](=O)[O-])o2)c1	inconclusive: 0.708 µM [inhibitor, single point]
CC(=O)N(C1=C(Cl)C(=O)c2ccccc2C1=O)c1ccc(C(=O)O)cc1	inconclusive: 35.5 µM [inhibitor, single point]
CCCCCCn1nc(C(=O)OCC(=O)c2c(N)n(C)c(=O)n(C)c2=O)c2ccccc2c1=O	inconclusive: 35.5 µM [inhibitor, single point]
Cc1ccc(N2CCN(C(=O)NCc3noc4ccc(C)cc34)CC2)c(C)c1	inactive
CSc1cccc(NC(=S)N(CCCN2CCCC(C)C2)Cc2cccs2)c1 (configuration not stated)	inconclusive: 35.5 µM [inhibitor, single point]
O=[N+]([O-])c1cc(C(F)(F)F)ccc1Sc1ccc2ccccc2n1	inactive
CC(=O)Oc1cccc(N2C(=O)C3CC=C(Cl)CC3C2=O)c1 (configuration not stated)	inactive
COc1ccc(-n2c(N)c(C(=O)NCC3CCCO3)c3nc4ccccc4nc32)c(OC)c1 (configuration not stated)	inconclusive: 2.06 µM [activator, partial curve, poor fit]
CNc1nc2ccccc2n1CC(=O)c1ccccc1	inconclusive: 10 µM [activator, partial curve, poor fit]
Cn1cc(Br)c(C(=O)Nc2sc3c(c2C(N)=O)CCCC3)n1	inconclusive: 35.5 µM [inhibitor, single point]
CCCN(CC(=O)Nc1ccccc1OC)C(=O)c1ccncc1	inactive
CCCCCn1c2c(c(=N)c3ccccc31)CCC2	inconclusive: 5.62 µM [inhibitor, partial curve, poor fit]
Cc1nc2c(O)c3c(c(O)c2nc1C)C1C=CC3CC1	inconclusive: 1.41 µM [inhibitor, full curve, poor fit]

SMILES	Potency
Cc1cccc(NC(=O)c2ccc(CNS(=O)(=O)c3ccc4c(c3)C(C)(C)C(=O)N4C)cc2)c1	inconclusive: 35.5 µM [inhibitor, single point]
Cc1ccc(S(=O)(=O)NC(=O)c2ccccc2)cc1C(C)C	inconclusive: 22.4 µM [activator, partial curve, poor fit]
COc1cccc(NC(=O)CN2CCN(S(=O)(=O)c3ccc(F)cc3)CC2)c1	inactive
O=C(COc1ccc(S(=O)(=O)N2CCCCC2)cc1)N1CCN(Cc2ccccc2)CC1	inconclusive: 20 µM [inhibitor, single point]
NNc1nc2c(-c3cccc(C(F)(F)F)c3)nnn2c2ccccc12	inconclusive: 35.5 µM [inhibitor, single point]
CC[C@@H]1C=C(C)C[C@H](C)C[C@H](OC)[C@H]2O[C@@](O)(C(=O)C(=O)N3CCCC[C@H]3C(=O)O[C@H](/C(C)=C/[C@@H]3CC[C@@H](O)[C@H](OC)C3)[C@H](C)[C@@H](O)CC1=O)[C@H](C)C[C@@H]2OC	inconclusive: 32.6 µM [inhibitor, single point]
CCOC(=O)N1CCN(CC(=O)Nc2sc(CC)cc2C(=O)c2ccc(OC)cc2)CC1	inconclusive: 1.12 µM [inhibitor, full curve, poor fit]
Cc1ccc(Cn2ncc3c(NN)ncnc32)cc1	inconclusive: 8.91 µM [inhibitor, partial curve, poor fit]
CCOC(=O)C1=C(C)NC(C)=C(C(=O)OCC)C1C(=O)OCC(=O)NC(C)c1ccccc1 (configuration not stated)	inconclusive: 15.8 µM [inhibitor, single point]
COc1ccc2c(c1)O[C@H](c1ccc3c(c1)OCO3)[C@@H](O)C2=O	inconclusive: 2.37 µM [activator, partial curve]
Cc1nc2ccc(C(=O)OCc3ccccc3Br)cc2nc1C	inconclusive: 29.1 µM [inhibitor, single point]
CCN(CC)CCN(C(=O)c1ccc2c(c1)CCCC2)c1nc2ccc(OC)cc2s1	inactive
Cc1ccc2c(c1)-c1nc3ccccc3cc1C2=NC1CCCCC1	inconclusive: 0.206 µM [activator, partial curve, poor fit]
COCCn1c(C)cc(C(=O)COC(=O)c2n[nH]c3ccccc23)c1C	inconclusive: 1.83 µM [inhibitor, full curve, poor fit]
Cc1ccc(C(=O)N(c2ccc(C)cc2)S(=O)(=O)c2ccc(Cl)cc2)cc1	inconclusive: 22.4 µM [inhibitor, single point]
COc1ccc(C2=NN(C(=O)c3cccnc3)C(c3ccccc3)C2)cc1 (configuration not stated)	inconclusive: 7.08 µM [inhibitor, full curve, poor fit]
COc1cc(OC)c(N(C)C(=O)c2cc3c(=O)oc4ccccc4c3s2)cc1Cl	inconclusive: 5.62 µM [inhibitor, single point]
COc1ccc(N(C)C(=S)Nc2ccc3nc(C)c(C)nc3c2)cc1	inconclusive: 3.98 µM [inhibitor, full curve]
N#CC(=C(O)CN1CCN(c2ccccc2F)CC1)c1nc(-c2ccccc2)cs1	inactive
COCC(C)n1c(C)cc(C(=O)CSc2nc3ccccc3c(=O)[nH]2)c1C (configuration not stated)	inconclusive: 29.1 µM [inhibitor, partial curve, poor fit]
c1ccc2c(c1)oc1c(N3CCN(Cc4ccc5c(c4)OCO5)CC3)ncnc12	inconclusive: 29.1 µM [inhibitor, single point]
COc1cc2cc(C(=O)O)[nH]c2c(OC)c1OC	inconclusive: 3.26 µM [inhibitor, partial curve, poor fit]
COc1ccc(C(=O)N/N=C/c2ccc(N3CCOCC3)o2)cc1OC	inactive

SMILES	Potency
CCOC(=O)Cn1c(=O)oc2cc(S(=O)(=O)N3CCN(C(=O)c4ccco4)CC3)ccc21	inconclusive: 29.1 µM [inhibitor, single point] and inconclusive: 6.31 µM [inhibitor, single point]
O=S(=O)(NCCOCC(F)(F)F)c1ccc2oc3ccccc3c2c1	inactive
COc1ccc(-n2cnc3ccccc32)cc1	inconclusive: 11.6 µM [activator, partial curve]
Cc1ccc(S(=O)(=O)C(CNC(=O)C(=O)NCCc2ccc(Cl)cc2)c2cccs2)cc1 (configuration not stated)	inactive
Cc1ccc(C)c(OCCn2cc(/C=C(\C#N)C(=O)NCC3CCCO3)c3ccccc32)c1 (configuration not stated)	inconclusive: 29.1 µM [inhibitor, single point]
COc1ccccc1CC(=O)N1CCN(c2ccc(F)cc2)CC1	inactive
CN1C(=O)N(C)C(=O)C2(Cc3cc(NC(=O)c4ccccc4)ccc3N3CCCC32)C1=O (configuration not stated)	inactive
Cc1ccc(CNC(=O)CN2CCN(Cc3ccc(C)cc3)C2=O)cc1	inconclusive: 12.6 µM [inhibitor, partial curve]
COC(=O)c1ccccc1NC(=O)CSc1n[nH]c(-c2cccnc2)n1	inconclusive: 22.4 µM [inhibitor, partial curve]
Cn1cnnc1Sc1cc(N2CCN(S(=O)(=O)c3ccc(Cl)c(Cl)c3)CC2)ccc1[N+](=O)[O-]	inactive
O=C(CC1N=C2c3ccccc3N=C(SCc3cccc(Cl)c3)N2C1=O)NCCc1ccccc1 (configuration not stated)	inconclusive: 35.5 µM [inhibitor, single point]
CCOc1ccc(CCNC(=O)Cn2cccc2C(=O)c2ccccc2C)cc1OCC	inconclusive: 1 µM [inhibitor, partial curve]
CCCn1c(CCC(=O)Nc2ccc(C)c(Cl)c2)nc2cccnc21	inactive
CCCOc1ccc(C(=O)NCc2ccco2)cc1	inconclusive: 2.91 µM [activator, full curve, poor fit]
N=c1sccn1CC(=O)Nc1ccc(Cl)cc1[N+](=O)[O-]	inactive
Cc1cc(-c2nnc3sc(-c4ccc(Cl)cc4Cl)nn23)n[nH]1	inconclusive: 11.2 µM [inhibitor, partial curve, poor fit]
Cc1onc(-c2ccncc2)c1C(=O)O	inactive
CCN(C(=O)c1c(C)oc2ncn(CC(C)C)c(=O)c12)c1cccc(Cl)c1	inactive
NS(=O)(=O)c1ccc(CCNc2nc(CN3CCCCC3)nc3sc4c(c23)CCC4)cc1	inactive
CN(C)CCC#CC(O)(c1ccccc1)c1ccccc1	inactive
CC(Oc1ccc(F)cc1)C(=O)Nc1nc(-c2ccccn2)cs1 (configuration not stated)	inconclusive: 35.5 µM [inhibitor, single point]

Filtered by structure: the compounds so far containing a thiophene ring, fused or not (8)
SMILES	Potency
O=C(c1cc2c(=O)oc3ccccc3c2s1)N1CCN(c2ccccc2)CC1	inconclusive: 11.2 µM [activator, partial curve, poor fit]
Cc1ccc(CNC(=O)c2sc3nc4n(c(=O)c3c2C)CCCCC4)cc1	inactive
CSc1cccc(NC(=S)N(CCCN2CCCC(C)C2)Cc2cccs2)c1 (configuration not stated)	inconclusive: 35.5 µM [inhibitor, single point]
Cn1cc(Br)c(C(=O)Nc2sc3c(c2C(N)=O)CCCC3)n1	inconclusive: 35.5 µM [inhibitor, single point]
CCOC(=O)N1CCN(CC(=O)Nc2sc(CC)cc2C(=O)c2ccc(OC)cc2)CC1	inconclusive: 1.12 µM [inhibitor, full curve, poor fit]
COc1cc(OC)c(N(C)C(=O)c2cc3c(=O)oc4ccccc4c3s2)cc1Cl	inconclusive: 5.62 µM [inhibitor, single point]
Cc1ccc(S(=O)(=O)C(CNC(=O)C(=O)NCCc2ccc(Cl)cc2)c2cccs2)cc1 (configuration not stated)	inactive
NS(=O)(=O)c1ccc(CCNc2nc(CN3CCCCC3)nc3sc4c(c23)CCC4)cc1	inactive

For convenience, part of the list above.
SMILES	Potency
Cn1cnnc1Sc1cc(N2CCN(S(=O)(=O)c3ccc(Cl)c(Cl)c3)CC2)ccc1[N+](=O)[O-]	inactive
O=C(CC1N=C2c3ccccc3N=C(SCc3cccc(Cl)c3)N2C1=O)NCCc1ccccc1 (configuration not stated)	inconclusive: 35.5 µM [inhibitor, single point]
